Source: patent US11771738B2 (Zoetis Services LLC, priority 2018, dated 2023)

Test: general procedure: solution-phase peptide synthesis; HATU/diisopropylethylamine (fragment couplings); propylphosphonic anhydride/diis

Row | Substance | step yield (late stage modification step) [%] | other results
1 | (3S,6R,9S,12R,15S,18R,21S,24R)-6,18-bis[[4-[[2-(difluoromethyl)-3-pyridyl]methyl]phenyl]methyl]-3,9,15,21-tetraisobutyl-4,10,12,16,22,24-hexamethyl-1,7,13,19-tetraoxa-4,10,16,22-tetrazacyclotetracosane-2,5,8,11,14,17,20,23-octaone | 62 | –
2 | (3S,6R,9S,12R,15S,18R,21S,24R)-3,9,15,21-tetraisobutyl-6,18-bis(4-(1-(6-methoxypyridin-3-yl)ethyl)benzyl)-4,10,12,16,22,24-hexamethyl-1,7,13,19-tetraoxa-4,10,16,22-tetraazacyclotetracosan-2,5,8,11,14,17,20,23-octaone | 52 | –
3 | Bis-Iodo PF1022a | 62 | –
4 | Bis-CH2OH PF1022a | – | step yield (late stage modification step, 2 steps from Bis-Iodo PF1022a): 91% yield for 2 steps
5 | (3S,6R,9S,12R,15S,18R,21S,24R)-6,18-bis(4-(1-fluoro-1-(5-methoxypyrazin-2-yl)ethyl)benzyl)-3,9,15,21-tetraisobutyl-4,10,12,16,22,24-hexamethyl-1,7,13,19-tetraoxa-4,10,16,22-tetraazacyclotetracosan-2,5,8,11,14,17,20,23-octaone | 3 | –
6 | dimethyl ((((2S,5R,8S,11R,14S,17R,20S,23R)-5,11,17,23-tetraisobutyl-4,8,10,16,20,22-hexamethyl-3,6,9,12,15,18,21,24-octaoxo-1,7,13,19-tetraoxa-4,10,16,22-tetraazacyclotetracosane-2,14-diyl)bis(methylene))bis(4,1-phenylene))dicarbamate | – | cyclisation yield (cyclisation step): 77% yield
7 | (R)-1-(benzyloxy)-1-oxopropan-2-yl N—((R)-2-((N-(tert-butoxycarbonyl)-N-methyl-L-leucyl)oxy)-3-(4-((methoxycarbonyl)amino)phenyl)propanoyl)-N-methyl-L-leucinate | – | step yield (coupling step): 83%
